The list shows a part of the results.
Compound: CC1Cc2ccccc2N1C(=O)C1CCCN(C1)C(=O)CCl (mixture of isomers) [TRIM25 ligand 11 (diastereomer mixture)]
Test: probe-labelled cysteine peptide fold change vs DMSO (competition) (log2 fold change); higher = less target engagement (more negative = stronger competition)
Conditions: THP-1, incubation time: 4 h
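Also: competitive chemoproteomic profiling in live THP-1 cells with an iodoacetamide desthiobiotin (IA-DTB) probe, comparing probe-labelled peptide intensities in compound-treated cells against DMSO-treated controls.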

By UniProt entry, the sequences of proteins in these tests, tags left out. Where a name states a change or a piece, a line headed by the entry shows the natural chain unless it says otherwise.
UniProt Q9UBB4: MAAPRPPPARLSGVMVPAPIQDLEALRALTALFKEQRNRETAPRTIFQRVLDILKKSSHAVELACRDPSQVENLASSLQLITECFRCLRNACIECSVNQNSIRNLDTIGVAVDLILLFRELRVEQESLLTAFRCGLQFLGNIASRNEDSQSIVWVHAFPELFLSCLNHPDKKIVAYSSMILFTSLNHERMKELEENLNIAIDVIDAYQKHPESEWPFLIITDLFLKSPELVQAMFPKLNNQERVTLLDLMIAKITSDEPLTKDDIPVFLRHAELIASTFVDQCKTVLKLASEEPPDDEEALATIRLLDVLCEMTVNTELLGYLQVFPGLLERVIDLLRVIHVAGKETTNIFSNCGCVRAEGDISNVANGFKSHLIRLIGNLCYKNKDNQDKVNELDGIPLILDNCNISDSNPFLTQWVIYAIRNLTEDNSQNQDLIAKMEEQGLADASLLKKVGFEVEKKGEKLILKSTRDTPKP
UniProt Q9NRL2: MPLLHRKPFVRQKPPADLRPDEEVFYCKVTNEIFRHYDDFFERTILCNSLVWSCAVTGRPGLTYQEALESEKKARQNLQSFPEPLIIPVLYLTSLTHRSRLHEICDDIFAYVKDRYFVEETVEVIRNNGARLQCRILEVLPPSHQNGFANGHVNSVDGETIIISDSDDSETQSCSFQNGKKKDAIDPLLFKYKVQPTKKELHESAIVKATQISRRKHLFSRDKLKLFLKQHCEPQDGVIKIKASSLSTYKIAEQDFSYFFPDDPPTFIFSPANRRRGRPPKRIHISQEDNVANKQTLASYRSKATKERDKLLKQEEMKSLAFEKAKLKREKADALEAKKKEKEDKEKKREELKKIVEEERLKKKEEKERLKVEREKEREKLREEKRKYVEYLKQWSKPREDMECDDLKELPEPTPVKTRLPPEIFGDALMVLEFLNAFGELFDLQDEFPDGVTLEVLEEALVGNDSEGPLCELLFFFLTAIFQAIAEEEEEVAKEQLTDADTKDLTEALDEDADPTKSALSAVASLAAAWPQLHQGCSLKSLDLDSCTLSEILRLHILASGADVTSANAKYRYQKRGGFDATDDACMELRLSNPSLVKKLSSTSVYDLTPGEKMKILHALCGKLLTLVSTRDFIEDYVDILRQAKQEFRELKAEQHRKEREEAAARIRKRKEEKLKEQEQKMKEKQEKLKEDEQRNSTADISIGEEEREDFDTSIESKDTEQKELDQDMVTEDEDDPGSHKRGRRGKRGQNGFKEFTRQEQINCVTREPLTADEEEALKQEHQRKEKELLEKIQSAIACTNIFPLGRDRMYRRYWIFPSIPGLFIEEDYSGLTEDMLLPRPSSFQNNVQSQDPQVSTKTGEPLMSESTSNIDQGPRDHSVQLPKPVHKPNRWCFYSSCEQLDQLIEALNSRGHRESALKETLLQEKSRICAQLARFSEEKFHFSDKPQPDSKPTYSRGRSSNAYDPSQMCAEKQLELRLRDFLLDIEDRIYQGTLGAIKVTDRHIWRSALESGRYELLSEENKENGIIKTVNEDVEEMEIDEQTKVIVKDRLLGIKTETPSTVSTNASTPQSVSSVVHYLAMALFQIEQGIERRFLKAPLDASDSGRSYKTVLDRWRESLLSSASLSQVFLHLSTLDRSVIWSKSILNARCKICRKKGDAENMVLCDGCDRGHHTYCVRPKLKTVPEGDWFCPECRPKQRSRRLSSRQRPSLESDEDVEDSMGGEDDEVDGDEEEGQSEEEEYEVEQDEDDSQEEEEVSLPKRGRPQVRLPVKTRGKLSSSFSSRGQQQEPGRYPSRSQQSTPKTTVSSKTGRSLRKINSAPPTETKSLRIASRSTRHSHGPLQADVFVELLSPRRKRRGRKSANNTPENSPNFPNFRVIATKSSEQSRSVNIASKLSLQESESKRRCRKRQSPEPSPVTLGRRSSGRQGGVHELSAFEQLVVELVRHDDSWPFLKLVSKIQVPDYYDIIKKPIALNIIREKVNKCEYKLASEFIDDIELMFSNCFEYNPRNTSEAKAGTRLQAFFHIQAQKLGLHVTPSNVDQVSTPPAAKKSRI
UniProt Q99933: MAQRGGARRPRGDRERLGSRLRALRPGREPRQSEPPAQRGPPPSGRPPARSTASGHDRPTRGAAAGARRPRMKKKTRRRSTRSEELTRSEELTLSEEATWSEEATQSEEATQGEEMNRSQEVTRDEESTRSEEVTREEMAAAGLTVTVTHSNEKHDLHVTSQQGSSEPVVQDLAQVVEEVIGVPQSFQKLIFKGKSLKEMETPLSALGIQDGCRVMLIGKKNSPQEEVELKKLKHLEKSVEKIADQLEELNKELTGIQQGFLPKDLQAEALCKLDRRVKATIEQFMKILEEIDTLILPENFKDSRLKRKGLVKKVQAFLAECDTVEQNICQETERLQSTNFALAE
UniProt Q8NFC6: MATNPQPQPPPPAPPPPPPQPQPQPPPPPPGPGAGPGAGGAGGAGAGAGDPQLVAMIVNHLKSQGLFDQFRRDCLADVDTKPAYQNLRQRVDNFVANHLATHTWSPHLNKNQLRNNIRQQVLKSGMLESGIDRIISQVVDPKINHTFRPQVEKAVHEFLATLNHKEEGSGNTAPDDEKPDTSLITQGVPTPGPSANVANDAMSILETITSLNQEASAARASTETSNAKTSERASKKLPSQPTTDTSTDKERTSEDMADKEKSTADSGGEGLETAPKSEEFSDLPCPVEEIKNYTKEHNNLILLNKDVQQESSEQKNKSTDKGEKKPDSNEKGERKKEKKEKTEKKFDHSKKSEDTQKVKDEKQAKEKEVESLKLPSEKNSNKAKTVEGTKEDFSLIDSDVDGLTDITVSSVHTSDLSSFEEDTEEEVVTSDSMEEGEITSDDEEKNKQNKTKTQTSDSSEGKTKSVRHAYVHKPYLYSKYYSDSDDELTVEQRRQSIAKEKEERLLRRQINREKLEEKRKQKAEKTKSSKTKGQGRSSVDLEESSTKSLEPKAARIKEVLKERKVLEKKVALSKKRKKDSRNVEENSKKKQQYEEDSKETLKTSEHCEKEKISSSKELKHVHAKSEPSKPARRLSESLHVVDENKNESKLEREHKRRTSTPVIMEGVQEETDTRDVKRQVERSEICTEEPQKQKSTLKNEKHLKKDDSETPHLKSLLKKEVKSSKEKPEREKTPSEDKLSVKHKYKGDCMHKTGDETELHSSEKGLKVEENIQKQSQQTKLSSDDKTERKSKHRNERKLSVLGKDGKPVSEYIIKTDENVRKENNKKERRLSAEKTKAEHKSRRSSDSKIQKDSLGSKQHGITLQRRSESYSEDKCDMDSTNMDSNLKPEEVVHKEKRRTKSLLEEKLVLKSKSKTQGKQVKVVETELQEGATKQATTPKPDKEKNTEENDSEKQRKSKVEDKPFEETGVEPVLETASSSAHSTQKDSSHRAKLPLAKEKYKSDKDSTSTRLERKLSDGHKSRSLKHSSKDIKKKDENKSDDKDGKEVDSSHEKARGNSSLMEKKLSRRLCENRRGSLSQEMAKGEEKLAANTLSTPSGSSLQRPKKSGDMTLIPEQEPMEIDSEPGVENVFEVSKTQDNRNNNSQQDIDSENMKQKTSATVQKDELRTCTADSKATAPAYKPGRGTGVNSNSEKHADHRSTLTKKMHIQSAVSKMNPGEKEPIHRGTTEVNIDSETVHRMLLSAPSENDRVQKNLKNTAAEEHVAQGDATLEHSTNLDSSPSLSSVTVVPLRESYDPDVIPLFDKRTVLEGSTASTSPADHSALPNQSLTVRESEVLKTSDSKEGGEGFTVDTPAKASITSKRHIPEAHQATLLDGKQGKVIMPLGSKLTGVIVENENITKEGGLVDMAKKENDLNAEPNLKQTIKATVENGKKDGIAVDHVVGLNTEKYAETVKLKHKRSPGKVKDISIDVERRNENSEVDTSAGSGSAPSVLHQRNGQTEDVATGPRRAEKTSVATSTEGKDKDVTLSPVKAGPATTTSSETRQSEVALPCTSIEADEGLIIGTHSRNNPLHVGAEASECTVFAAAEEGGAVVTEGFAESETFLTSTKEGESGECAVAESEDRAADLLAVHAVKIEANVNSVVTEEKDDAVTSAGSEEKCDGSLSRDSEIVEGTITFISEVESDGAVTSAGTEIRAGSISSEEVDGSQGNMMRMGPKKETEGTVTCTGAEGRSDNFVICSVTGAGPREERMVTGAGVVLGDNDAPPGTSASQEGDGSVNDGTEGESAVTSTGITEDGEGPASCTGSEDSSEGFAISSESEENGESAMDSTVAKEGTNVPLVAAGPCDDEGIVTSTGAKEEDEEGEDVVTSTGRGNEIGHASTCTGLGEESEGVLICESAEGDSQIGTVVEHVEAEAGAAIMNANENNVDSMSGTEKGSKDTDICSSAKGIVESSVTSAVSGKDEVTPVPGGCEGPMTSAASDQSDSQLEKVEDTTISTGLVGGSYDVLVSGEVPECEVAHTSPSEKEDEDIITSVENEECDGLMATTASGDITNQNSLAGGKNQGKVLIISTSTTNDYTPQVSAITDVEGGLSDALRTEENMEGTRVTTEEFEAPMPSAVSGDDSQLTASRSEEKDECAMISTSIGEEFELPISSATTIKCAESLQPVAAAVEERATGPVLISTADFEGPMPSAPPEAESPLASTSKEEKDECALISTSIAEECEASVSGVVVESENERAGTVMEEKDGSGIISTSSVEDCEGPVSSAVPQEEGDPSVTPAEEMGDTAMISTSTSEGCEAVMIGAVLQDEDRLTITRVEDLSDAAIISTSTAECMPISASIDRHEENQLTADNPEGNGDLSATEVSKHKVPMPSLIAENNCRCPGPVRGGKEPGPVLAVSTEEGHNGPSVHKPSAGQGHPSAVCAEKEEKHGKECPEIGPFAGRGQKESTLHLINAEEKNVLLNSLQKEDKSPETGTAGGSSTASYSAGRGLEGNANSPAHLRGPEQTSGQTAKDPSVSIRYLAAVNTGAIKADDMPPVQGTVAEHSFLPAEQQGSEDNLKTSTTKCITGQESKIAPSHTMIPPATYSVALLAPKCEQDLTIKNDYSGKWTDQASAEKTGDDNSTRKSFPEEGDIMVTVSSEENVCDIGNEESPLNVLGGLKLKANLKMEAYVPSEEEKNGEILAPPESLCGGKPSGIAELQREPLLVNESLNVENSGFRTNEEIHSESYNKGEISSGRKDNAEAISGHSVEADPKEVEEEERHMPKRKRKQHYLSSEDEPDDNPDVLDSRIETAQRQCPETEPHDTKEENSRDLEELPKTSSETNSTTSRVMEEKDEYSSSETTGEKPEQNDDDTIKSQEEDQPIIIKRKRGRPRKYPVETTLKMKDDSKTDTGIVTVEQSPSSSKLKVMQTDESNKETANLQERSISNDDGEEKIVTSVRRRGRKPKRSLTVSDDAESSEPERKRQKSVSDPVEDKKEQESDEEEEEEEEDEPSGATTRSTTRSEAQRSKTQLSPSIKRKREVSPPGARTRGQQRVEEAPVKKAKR
UniProt Q96L58: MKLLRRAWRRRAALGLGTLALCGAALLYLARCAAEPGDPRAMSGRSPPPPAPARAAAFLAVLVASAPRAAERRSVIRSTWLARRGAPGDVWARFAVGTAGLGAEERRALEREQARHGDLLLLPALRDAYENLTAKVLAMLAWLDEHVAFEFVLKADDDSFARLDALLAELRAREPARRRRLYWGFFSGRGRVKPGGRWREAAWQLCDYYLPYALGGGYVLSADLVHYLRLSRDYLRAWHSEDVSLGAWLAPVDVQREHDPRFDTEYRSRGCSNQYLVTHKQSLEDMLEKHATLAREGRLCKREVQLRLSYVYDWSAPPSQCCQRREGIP
UniProt Q6ZT62: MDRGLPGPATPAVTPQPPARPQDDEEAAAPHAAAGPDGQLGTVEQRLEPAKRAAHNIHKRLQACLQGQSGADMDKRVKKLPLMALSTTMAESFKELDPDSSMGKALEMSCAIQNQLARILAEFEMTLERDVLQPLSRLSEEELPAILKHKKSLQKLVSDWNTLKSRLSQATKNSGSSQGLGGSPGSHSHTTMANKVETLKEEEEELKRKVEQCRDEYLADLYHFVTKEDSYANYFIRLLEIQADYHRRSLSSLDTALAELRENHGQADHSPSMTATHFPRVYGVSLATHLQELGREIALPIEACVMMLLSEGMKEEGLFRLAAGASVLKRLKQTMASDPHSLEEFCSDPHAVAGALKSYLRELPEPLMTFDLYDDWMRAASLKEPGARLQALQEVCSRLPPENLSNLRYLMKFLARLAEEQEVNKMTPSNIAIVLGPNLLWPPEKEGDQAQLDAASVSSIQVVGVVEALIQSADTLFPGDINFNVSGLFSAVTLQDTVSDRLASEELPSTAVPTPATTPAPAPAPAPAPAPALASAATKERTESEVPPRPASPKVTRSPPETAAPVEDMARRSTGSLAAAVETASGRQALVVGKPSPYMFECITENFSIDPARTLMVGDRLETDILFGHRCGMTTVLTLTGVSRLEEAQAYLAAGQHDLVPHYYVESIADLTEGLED

Target	probe-labelled cysteine peptide fold change (10 µM)	probe-labelled cysteine peptide fold change (50 µM)
ATXN7L3_Q14CW9_226_CPQHTDEQR (UniProt Q14CW9)	-0.0455	0.00938
ATXN10_Q9UBB4_165_NEDSQSIVWVHAFPELFLSCLNHPDK (UniProt Q9UBB4)	0.0516	0.192
BLOC1S3_Q6QNY0_168_GDLCALAER (UniProt Q6QNY0)	-0.209	-0.549
BAZ1A_Q9NRL2_764_QEQINCVTREPLTADEEEALK (UniProt Q9NRL2)	0.112	0.0187
BIRC6_Q9NR09_463_RPTLAWLEDSSSCSDIPK (UniProt Q9NR09)	0.218	0.0776
BAG1_Q99933_322_VQAFLAECDTVEQNICQETER (UniProt Q99933)	-0.219	-0.0595
BMP2K_Q9NSY1_912_VNVQECHAVGPEAHTIPGYPK (UniProt Q9NSY1)	0.0239	-0.178
BAZ2A_Q9UIF9_1697_GDNDEFLLLCDGCDR (UniProt Q9UIF9)	0.284	-0.0807
BOD1L1_Q8NFC6_285_SEEFSDLPCPVEEIK (UniProt Q8NFC6)	0.0806	0.0982
BCAR1_P56945_46_KGDIMTVLEQDTQGLDGWWLCSLHGR (UniProt P56945)	-0.0121	-0.0222
BDH1_Q02338_86_GFLVFAGCLMK (UniProt Q02338)	-0.242	0.0199
B3GALT6_Q96L58_271_GCSNQYLVTHK (UniProt Q96L58)	0.00219	-0.0349
BARGIN_Q6ZT62_110_ALEMSCAIQNQLAR (UniProt Q6ZT62)	0.0513	0.192
BAZ1A_Q9NRL2_893+898_WCFYSSCEQLDQLIEALNSR (UniProt Q9NRL2)	0.0252	-0.174

Complete entries, quoted from the list:
BARGIN_Q6ZT62_110_ALEMSCAIQNQLAR (UniProt Q6ZT62) in the list: probe-labelled cysteine peptide fold change (10 µM): 0.0513; probe-labelled cysteine peptide fold change (50 µM): 0.192
B3GALT6_Q96L58_271_GCSNQYLVTHK (UniProt Q96L58) in the list: probe-labelled cysteine peptide fold change (10 µM): 0.00219; probe-labelled cysteine peptide fold change (50 µM): -0.0349

Source: the supplement of paper PMC12067093, “Discovery and optimisation of a covalent ligand for TRIM25 and its application to targeted protein ubiquitination” (Chemical Science, 2025)
